# According to the supplement of paper PMC10849652:
# By UniProt entry, the sequences of proteins in these tests, tags left out. Where a name states a change or a piece, a line headed by the entry shows the natural chain unless it says otherwise.
# UniProt Q01850: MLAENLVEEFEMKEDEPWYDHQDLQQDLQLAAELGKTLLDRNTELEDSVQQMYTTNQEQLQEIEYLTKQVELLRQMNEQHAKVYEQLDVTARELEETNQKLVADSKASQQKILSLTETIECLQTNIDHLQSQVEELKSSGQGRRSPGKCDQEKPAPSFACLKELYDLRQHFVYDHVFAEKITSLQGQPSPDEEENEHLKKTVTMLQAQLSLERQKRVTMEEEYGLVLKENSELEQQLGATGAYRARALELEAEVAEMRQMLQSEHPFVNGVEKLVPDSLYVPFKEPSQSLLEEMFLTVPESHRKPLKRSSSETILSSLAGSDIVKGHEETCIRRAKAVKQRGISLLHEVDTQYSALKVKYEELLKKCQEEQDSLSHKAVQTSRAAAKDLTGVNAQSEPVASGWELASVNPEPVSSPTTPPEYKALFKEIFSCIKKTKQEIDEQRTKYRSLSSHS
# UniProt O60508: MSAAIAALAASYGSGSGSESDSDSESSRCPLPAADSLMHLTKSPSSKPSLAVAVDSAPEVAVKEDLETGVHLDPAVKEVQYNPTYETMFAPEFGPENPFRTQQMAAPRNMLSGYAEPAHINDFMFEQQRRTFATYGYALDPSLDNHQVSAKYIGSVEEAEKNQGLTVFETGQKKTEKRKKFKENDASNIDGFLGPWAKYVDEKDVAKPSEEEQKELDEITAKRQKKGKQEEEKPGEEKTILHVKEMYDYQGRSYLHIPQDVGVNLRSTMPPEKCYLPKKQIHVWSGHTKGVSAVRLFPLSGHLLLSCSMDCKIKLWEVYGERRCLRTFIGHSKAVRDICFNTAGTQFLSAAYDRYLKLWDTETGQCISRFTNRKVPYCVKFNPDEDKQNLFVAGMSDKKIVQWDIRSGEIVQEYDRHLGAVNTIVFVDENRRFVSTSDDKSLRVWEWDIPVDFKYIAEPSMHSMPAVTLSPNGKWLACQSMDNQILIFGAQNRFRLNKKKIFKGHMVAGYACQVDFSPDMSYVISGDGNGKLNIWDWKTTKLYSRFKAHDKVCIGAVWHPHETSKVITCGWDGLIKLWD
# UniProt P60953, whole entry, looked up: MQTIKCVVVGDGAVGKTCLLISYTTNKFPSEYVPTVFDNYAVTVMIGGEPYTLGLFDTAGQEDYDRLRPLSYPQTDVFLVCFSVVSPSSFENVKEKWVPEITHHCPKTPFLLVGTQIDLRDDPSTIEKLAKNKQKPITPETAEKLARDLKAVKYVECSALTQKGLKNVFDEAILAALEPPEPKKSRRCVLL
# UniProt P41208: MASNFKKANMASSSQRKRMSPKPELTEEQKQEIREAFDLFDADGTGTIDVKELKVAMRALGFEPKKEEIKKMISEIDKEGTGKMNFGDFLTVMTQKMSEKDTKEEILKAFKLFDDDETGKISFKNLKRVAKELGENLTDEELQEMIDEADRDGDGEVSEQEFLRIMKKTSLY
# UniProt Q9UJX2, whole entry, looked up: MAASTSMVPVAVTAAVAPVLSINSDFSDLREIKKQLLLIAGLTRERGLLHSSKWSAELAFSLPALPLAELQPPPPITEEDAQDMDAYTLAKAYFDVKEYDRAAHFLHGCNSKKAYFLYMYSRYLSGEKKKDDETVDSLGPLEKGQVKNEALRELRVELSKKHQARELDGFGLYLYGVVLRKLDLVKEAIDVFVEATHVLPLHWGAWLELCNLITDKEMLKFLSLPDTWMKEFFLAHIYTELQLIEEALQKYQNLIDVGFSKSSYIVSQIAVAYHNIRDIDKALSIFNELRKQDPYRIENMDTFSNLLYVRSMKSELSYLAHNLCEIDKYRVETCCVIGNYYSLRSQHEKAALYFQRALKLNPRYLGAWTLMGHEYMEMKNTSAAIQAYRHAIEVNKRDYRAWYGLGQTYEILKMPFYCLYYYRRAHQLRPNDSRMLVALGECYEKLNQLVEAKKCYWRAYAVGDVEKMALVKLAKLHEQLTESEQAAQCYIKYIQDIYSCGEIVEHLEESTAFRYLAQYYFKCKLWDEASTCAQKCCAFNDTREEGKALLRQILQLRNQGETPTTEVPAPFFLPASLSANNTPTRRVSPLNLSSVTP
# UniProt O14519: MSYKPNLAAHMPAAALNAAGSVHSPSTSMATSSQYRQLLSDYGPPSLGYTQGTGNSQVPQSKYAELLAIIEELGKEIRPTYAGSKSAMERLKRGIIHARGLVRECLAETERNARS
# UniProt Q7L3B6: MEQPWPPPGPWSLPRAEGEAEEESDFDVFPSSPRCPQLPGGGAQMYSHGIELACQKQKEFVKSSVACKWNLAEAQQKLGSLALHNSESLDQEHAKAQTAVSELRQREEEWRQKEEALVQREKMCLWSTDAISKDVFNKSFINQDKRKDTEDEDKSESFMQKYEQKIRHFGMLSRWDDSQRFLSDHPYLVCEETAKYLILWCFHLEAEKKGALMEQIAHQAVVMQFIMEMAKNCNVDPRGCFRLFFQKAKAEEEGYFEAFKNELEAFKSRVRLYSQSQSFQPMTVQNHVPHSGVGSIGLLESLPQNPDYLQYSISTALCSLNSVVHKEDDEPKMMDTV
# UniProt Q8N2Z9: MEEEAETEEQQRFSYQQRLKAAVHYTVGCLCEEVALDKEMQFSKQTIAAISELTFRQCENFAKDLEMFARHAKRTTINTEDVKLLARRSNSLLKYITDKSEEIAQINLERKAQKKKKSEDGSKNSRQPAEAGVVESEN
# UniProt Q99459: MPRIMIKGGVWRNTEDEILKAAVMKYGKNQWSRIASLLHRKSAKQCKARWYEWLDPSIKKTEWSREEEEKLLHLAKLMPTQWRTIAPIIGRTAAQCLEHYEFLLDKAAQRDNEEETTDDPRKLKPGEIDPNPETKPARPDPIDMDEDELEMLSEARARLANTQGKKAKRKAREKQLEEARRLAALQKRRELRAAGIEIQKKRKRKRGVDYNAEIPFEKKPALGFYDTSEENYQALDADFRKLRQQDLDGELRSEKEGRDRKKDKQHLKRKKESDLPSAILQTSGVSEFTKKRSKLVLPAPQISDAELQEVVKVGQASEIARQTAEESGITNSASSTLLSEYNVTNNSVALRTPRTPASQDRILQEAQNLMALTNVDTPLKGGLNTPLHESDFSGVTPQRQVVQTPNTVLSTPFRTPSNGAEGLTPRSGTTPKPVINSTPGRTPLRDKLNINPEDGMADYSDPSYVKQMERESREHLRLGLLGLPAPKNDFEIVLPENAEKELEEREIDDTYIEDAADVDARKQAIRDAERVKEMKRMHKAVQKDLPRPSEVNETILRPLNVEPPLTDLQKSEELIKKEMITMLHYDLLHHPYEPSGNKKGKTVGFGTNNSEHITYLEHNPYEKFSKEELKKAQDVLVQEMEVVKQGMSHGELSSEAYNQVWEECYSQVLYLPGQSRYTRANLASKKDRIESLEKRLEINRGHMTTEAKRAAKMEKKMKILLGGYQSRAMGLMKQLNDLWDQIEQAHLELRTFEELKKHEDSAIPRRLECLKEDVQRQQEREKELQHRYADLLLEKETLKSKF
# UniProt Q6ZMG9: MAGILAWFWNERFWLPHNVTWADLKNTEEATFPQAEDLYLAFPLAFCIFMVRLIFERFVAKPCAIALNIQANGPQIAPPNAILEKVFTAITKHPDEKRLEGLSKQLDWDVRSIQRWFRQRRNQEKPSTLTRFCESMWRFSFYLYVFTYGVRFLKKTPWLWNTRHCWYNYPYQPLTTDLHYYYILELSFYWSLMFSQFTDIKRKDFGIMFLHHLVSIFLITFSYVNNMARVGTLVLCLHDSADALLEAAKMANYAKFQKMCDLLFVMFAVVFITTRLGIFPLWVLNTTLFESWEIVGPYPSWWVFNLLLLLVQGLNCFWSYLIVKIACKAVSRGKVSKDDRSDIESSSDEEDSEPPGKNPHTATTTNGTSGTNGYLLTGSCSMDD
# UniProt Q5SW79: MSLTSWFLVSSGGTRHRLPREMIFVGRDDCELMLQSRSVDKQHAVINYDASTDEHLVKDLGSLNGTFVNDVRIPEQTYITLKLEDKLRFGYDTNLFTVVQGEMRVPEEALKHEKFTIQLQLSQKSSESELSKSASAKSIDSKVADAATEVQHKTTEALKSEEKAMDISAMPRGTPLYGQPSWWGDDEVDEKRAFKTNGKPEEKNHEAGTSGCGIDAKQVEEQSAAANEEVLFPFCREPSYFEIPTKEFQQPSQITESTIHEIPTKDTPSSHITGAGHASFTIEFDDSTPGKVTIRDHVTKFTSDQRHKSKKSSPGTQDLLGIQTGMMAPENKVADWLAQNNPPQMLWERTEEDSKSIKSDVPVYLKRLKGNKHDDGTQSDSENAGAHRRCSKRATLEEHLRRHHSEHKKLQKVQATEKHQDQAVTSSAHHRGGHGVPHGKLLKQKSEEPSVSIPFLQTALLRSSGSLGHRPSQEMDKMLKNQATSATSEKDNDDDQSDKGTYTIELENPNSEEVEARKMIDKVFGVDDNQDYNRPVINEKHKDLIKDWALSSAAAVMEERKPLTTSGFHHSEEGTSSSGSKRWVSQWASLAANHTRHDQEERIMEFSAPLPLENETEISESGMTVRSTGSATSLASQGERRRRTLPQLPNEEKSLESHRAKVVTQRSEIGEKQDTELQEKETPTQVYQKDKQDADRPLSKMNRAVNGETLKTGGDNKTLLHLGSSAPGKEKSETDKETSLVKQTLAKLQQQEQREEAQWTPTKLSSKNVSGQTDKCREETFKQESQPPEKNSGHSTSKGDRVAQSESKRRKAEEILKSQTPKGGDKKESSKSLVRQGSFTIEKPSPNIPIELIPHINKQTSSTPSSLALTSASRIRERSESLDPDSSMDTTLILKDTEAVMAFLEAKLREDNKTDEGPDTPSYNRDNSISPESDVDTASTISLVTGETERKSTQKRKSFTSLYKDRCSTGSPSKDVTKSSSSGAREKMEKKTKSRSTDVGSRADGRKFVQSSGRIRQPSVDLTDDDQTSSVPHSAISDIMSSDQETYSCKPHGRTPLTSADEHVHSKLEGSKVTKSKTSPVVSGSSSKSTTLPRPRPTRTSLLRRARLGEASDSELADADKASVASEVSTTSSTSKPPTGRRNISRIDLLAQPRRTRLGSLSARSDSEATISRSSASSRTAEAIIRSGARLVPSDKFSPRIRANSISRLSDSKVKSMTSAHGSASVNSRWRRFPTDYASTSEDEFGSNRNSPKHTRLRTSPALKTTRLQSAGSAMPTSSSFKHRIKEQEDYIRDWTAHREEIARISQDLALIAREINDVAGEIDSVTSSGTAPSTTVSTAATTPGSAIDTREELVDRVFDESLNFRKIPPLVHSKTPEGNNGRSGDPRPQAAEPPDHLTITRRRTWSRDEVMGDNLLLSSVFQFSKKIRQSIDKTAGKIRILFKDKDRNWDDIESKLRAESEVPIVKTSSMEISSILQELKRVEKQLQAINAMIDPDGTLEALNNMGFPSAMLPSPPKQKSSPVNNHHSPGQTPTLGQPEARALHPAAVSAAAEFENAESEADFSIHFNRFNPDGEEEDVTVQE
# UniProt Q8NHZ8, whole entry, looked up: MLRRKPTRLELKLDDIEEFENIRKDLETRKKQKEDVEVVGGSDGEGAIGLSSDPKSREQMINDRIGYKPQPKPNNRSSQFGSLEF
# UniProt Q66GS9: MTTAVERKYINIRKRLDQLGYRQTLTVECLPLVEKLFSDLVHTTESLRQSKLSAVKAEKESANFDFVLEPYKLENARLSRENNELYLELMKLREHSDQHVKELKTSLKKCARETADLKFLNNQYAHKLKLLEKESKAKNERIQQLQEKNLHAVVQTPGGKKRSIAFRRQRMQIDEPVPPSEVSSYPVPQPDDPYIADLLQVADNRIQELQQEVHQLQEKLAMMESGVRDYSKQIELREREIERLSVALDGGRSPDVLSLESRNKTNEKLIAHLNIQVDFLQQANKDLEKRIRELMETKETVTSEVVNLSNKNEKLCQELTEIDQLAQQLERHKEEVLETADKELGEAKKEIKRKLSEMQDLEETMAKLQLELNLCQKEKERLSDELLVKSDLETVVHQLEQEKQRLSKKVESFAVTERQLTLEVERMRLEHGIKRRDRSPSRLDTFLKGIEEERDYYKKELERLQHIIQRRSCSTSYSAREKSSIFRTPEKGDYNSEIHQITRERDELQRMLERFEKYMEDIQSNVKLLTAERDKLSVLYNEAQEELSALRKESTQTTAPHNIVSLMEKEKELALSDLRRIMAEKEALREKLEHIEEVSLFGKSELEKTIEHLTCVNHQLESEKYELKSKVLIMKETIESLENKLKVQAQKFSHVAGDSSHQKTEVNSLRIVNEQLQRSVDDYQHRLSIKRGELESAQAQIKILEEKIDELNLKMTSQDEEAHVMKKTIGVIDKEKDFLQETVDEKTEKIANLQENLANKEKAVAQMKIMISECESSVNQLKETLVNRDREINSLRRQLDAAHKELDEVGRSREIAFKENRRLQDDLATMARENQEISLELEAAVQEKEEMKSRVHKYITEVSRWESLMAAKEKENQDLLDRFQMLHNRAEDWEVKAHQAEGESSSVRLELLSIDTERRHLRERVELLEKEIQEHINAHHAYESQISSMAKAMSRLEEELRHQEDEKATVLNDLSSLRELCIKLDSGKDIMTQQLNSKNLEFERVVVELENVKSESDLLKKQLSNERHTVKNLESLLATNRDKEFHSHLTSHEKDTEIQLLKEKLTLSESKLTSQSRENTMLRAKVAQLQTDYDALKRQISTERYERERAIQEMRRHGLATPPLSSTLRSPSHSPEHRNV
# The other results are listed elsewhere or left out.
# Compound: Cc1ccc(-n2nc(C(C)(C)C)cc2NC(=O)Nc2ccc(OCCN3CCOCC3)c3ccccc23)cc1 [doramapimod]
# Assay: log2 fold change, soluble protein after heating vs DMSO (PISA); higher = thermal stabilisation; K562 lysate, 10 uM; active = over 0.2 and 3.5 SD of the protein, either way, in both replicates (recomputed)
# Method in brief: (§1)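 To prepare the extract, K562 pellets were dounce-homogenised in PBS pH 7.4 with 1 mM MgCl2, giving crude material at 1 mg/mL protein. This was treated with 10 μM compound for 30 min, then heated in aliquots for 3 min over 48°C-58°C before pooling and addition of NP-40 to 0.5% at 4°C. Centrifugation at 21,000xg for 90 min left soluble protein in the supernatant, which TMTpro 16plex LC-MS/MS quantified with equalised channel sums. Results are log-two fold changes in thermal stability compared with solvent controls, from duplicates.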
row,Target,log2 fold change
1,CDR2 (UniProt Q01850),inactive: -0.009
2,CDC40 (UniProt O60508),inactive: -0.005
3,CDC42 (UniProt P60953),inactive: -0.038
4,CETN2 (UniProt P41208),inactive: 0.009
5,CDC23 (UniProt Q9UJX2),inactive: 0.03
6,CDK2AP1 (UniProt O14519),inactive: 0.023
7,CDC37L1 (UniProt Q7L3B6),inactive: 0
8,CENPS (UniProt Q8N2Z9),inactive: -0.047
9,CDC5L (UniProt Q99459),inactive: 0.006
10,CERS6 isoform 2 (UniProt Q6ZMG9),inactive: -0.044

# Compound: Cc1ccc(NC(=O)c2ccc(CN3CC[C@H](N(C)C)C3)c(C(F)(F)F)c2)cc1Nc1nccc(-c2cncnc2)n1 [bafetinib]
# Assay: as above
# Method in brief: as §1
row,Target,log2 fold change
1,CEP350 (UniProt Q5VT06),inactive: 0.026
2,CEP170 (UniProt Q5SW79),inactive: -0.008
3,CFH (UniProt P08603),inactive: -0.014
4,CFL2 (UniProt Q9Y281),inactive: -0.026
5,CFDP1 (UniProt Q9UEE9),inactive: 0.07
6,CEP97 (UniProt Q8IW35),inactive: -0.115
7,CDCA3 (UniProt Q99618),inactive: 0.014
8,CDC42 isoform 1 (UniProt P60953),inactive: -0.055
9,CENPH (UniProt Q9H3R5),inactive: 0
10,CERS2 (UniProt Q96G23),inactive: -0.047
11,CDC45 isoform 3 (UniProt O75419),inactive: -0.077
12,CFL1 (UniProt P23528),inactive: 0.149
13,CENPK (UniProt Q9BS16),inactive: -0.004
14,CDCP1 (UniProt Q9H5V8),inactive: -0.03
15,CDC26 (UniProt Q8NHZ8),inactive: -0.063
16,CENPU (UniProt Q71F23),inactive: 0.043
17,CDC42BPB (UniProt Q9Y5S2),inactive: -0.062

row,Target,log2 fold change
1,CEP85 isoform 2 (UniProt Q6P2H3),inactive: -0.135
2,CDKAL1 (UniProt Q5VV42),inactive: -0.028
3,CEP135 (UniProt Q66GS9),inactive: -0.089
4,CDK19 (UniProt Q9BWU1),inactive: 0.028
5,CEP76 (UniProt Q8TAP6),inactive: -0.115
6,CDIPT (UniProt O14735),inactive: -0.008
7,CDR2 (UniProt Q01850),inactive: -0.026
8,CDC40 (UniProt O60508),inactive: -0.033
9,CDC42 (UniProt P60953),inactive: 0.48
10,CETN2 (UniProt P41208),inactive: 0.029
11,CDC23 (UniProt Q9UJX2),inactive: -0.056
12,CDK2AP1 (UniProt O14519),inactive: -0.123
13,CDC37L1 (UniProt Q7L3B6),inactive: -0.029
14,CENPS (UniProt Q8N2Z9),inactive: -0.085
15,CDC5L (UniProt Q99459),inactive: -0.04
16,CERS6 isoform 2 (UniProt Q6ZMG9),inactive: 0.063

# Compound: Cc1cccc(CC(=O)N2CCc3c2ccc(-c2cn(C)c4ncnc(N)c24)c3F)n1
# Assay: as above
# Method in brief: as §1
row,Target,log2 fold change
1,CEP350 (UniProt Q5VT06),inactive: 0.071
2,CEP170 (UniProt Q5SW79),inactive: 0.027
3,CFH (UniProt P08603),inactive: -0.121
4,CFL2 (UniProt Q9Y281),inactive: 0.051
5,CFDP1 (UniProt Q9UEE9),inactive: 0.091
6,CEP97 (UniProt Q8IW35),inactive: 0.027
7,CDCA3 (UniProt Q99618),inactive: 0.051
8,CDC42 isoform 1 (UniProt P60953),inactive: 0.098
9,CENPH (UniProt Q9H3R5),inactive: -0.094
10,CERS2 (UniProt Q96G23),inactive: -0.094
11,CDC45 isoform 3 (UniProt O75419),inactive: -0.018
12,CFL1 (UniProt P23528),inactive: -0.071
13,CENPK (UniProt Q9BS16),inactive: -0.052
14,CDCP1 (UniProt Q9H5V8),inactive: 0.045
15,CDC26 (UniProt Q8NHZ8),inactive: 0.089
16,CENPU (UniProt Q71F23),inactive: 0.019
17,CDC42BPB (UniProt Q9Y5S2),inactive: -0.042

row,Target,log2 fold change
1,CEP85 isoform 2 (UniProt Q6P2H3),inactive: -0.035
2,CDKAL1 (UniProt Q5VV42),inactive: -0.008
3,CEP135 (UniProt Q66GS9),inactive: 0.066
4,CDK19 (UniProt Q9BWU1),inactive: 0
5,CEP76 (UniProt Q8TAP6),inactive: 0.027
6,CDIPT (UniProt O14735),inactive: 0.062
7,CDR2 (UniProt Q01850),inactive: 0.03
8,CDC40 (UniProt O60508),inactive: 0.006
9,CDC42 (UniProt P60953),inactive: -0.08
10,CETN2 (UniProt P41208),inactive: -0.008
11,CDC23 (UniProt Q9UJX2),inactive: -0.01
12,CDK2AP1 (UniProt O14519),inactive: -0.046
13,CDC37L1 (UniProt Q7L3B6),inactive: 0.023
14,CENPS (UniProt Q8N2Z9),inactive: 0.048
15,CDC5L (UniProt Q99459),inactive: -0.01
16,CERS6 isoform 2 (UniProt Q6ZMG9),inactive: 0.001
